The values that follow come from patent US20150299335A1 (X BODY, published 2015).

No constants are given. Whether binding was seen depends on the method and setting. Some results given as binding are weak or reduced against the parent protein; the word gives no strength.

In the test the target is T1, HER2 (UniProt P04626 23-652, limits assumed).
T1 construct: also called receptor tyrosine-protein kinase erbB-2
In words: FACS-based competition assay.

B1: B8 anti-HER2 VH domain (other)
VH: EVQLVESGAEVKEPGASVKVSCKSSGYSFTGNYMHWVRQAPGQGLEWMGWMNPKSGGTYYAQKFQGRVTMTWDTSISTAYMELSGLTSDDTAVYYCARWARGSTSPHGLDVWGQGTLVTVSS
notes: Stand-alone antibody VH domain with no light chain; also called B8 VH domain; B8 VH
As to B1, the binding result is “binds”.
